Assay results reported in PubChem BioAssay AID595 (National Center for Advancing Translational Sciences (NCATS), 2007).
Values joined by “and” are separate entries in the source; they are usually repeats but may differ in a detail not shown here. Equal entries are not always repeated. The campaign covered roughly 71,000 compounds. About 310 (0.44%) were called active. The shares of active, inactive and inconclusive entries below differ from those in the screen. The call rests on the fitted dose curve; in most records, active means well fitted curve in either direction with a large enough effect; inconclusive means small, poorly fitted or top-dose-only effect, or another doubt; inactive means flat fitted curve, though single readings scatter. Potencies beside an inconclusive call are fits to weak or partial responses and may not hold up. More than one record can exist for a structure, and the calls need not agree.

Test system: Hsp90 C-terminal peptide / TPR2A (Hop) interaction, human
Test: qHTS Assay for Disrupters of an Hsp90 Co-Chaperone Interaction
Conditions: AlphaScreen TPR2A-His6 binding biotin-Hsp90 C-terminal peptide; activity change, negative = inhibition: at 57 µM (top of the series) unless noted
On the % scale 0 is the no-effect control and ±100 the full control effect; potency means the concentration at half of the fitted maximal effect.

Structure (SMILES) | activity change, negative = inhibition | Potency
CCC(=O)Nc1cc(C(=O)NCC2CCCN2CC)c(OC)cc1N(C)C (stereo not given) | inconclusive: 42.8% | 
COc1ccc(Br)cc1CNc1ccc(O)cc1 |  | inconclusive: 31.6 µM [inhibitor, single point]
CN1CCN(c2ncc3nc(-c4cccs4)c(=O)n(Cc4cccs4)c3n2)CC1 |  | inconclusive: 12.6 µM [activator, partial curve]
COc1ccc(OCCSc2ncccn2)cc1 | inactive | 
CCOC(=O)C(O)(NC(=O)c1cccnc1)C(F)(F)F (stereo not given) | inconclusive: 42.2% | 
CC1CN(S(=O)(=O)c2ccc(NC(=O)c3cc(-c4ccccc4O)n[nH]3)cc2)CC(C)O1 (stereo not given) | inconclusive: 41% | 
CCOC(=O)C1CCN(C(c2cccc(OC)c2)c2sc3nc(C)nn3c2O)CC1 (stereo not given) | inconclusive: 12.5% | 
O=C(COC(=O)c1cccs1)c1ccc2c(c1)OCCO2 | inactive | 
O=C(OCc1ccccc1F)c1ccc2c(c1)OCCO2 |  | inconclusive: 25.1 µM [activator, single point]
CCn1cnc2c1c(=O)n(CC(=O)Nc1cc(C)on1)c(=O)n2Cc1ccccc1 | inconclusive: 43.5% | 
COC(=O)C1=CNC=C(C(=O)OC)C1c1ccccc1Cl | inactive | 
CO[C@@]12C[C@@H](COC(=O)c3cncc(Br)c3)CN(C)[C@H]1Cc1cn(C)c3cccc2c13 |  | active: 10 µM
COc1ccc(C(C)=O)cc1CSc1nc2ccccc2o1 | inactive | 
CCCc1noc(-c2ccc(-c3ccccc3)cc2)n1 |  | inconclusive: 20 µM [activator, partial curve]
COc1ccc(OC(=O)CCCN2C(=O)c3ccccc3C2=O)cc1 | inactive | 
Cc1cc(NC(=O)CSc2nnc(-c3ccco3)o2)no1 |  | inconclusive: 25.1 µM [inhibitor, partial curve]
CSC(=O)CC(=O)NC(=O)c1ccccc1 | inconclusive: 44.7% | 
COc1ccc(N(C)C(=O)Nc2ccc3c(c2)nnn3C)cc1 | inconclusive: 38.7% | 
Cc1ccc(-n2c(SCC(=O)Nc3ccc4c(c3)OCCO4)nnc2-c2ccco2)cc1 | inactive | 
CCC1CCCCN1C(=O)c1cc(-c2ccc(Cl)c(Cl)c2)on1 (stereo not given) |  | inconclusive: 31.6 µM [activator, single point]
COc1cccc(Cn2c(=O)cnc3cnc(N4CCOCC4)nc32)c1 | inactive | 
CCOC(=O)c1cc2cc(-c3c(C(=O)OCC)oc4cc(O)cc(O)c4c3=O)ccc2o1 |  | inconclusive: 31.6 µM [inhibitor, single point]
O=C(CSc1nc2ccccc2[nH]1)NCCCn1ccnc1 |  | inconclusive: 31.6 µM [inhibitor, single point]
COc1ccc(-c2cc(C(F)(F)F)n3nc(C(=O)N4CCCCC4)cc3n2)cc1 |  | inconclusive: 25.1 µM [activator, single point]
CC(C)OC(=O)c1c(NC(=O)c2cccs2)sc2c1CCCC2 |  | active: 25.1 µM [activator]
CCOC(=O)c1ccc2nc(NC(=O)c3cccs3)sc2c1 | inactive | 
CCOc1ccc(-c2nc(C#N)c(N3CCCCCC3)o2)cc1 |  | inconclusive: 12.6 µM [inhibitor, partial curve]

Structure (SMILES) | activity change, negative = inhibition | Potency
COc1ccc(-c2nc3cnc(N4CCOCC4)nc3n(-c3ccc(OC)cc3)c2=O)cc1 | inconclusive: 91% | 
Cc1c(O)cccc1C(=O)N[C@@H](CSc1ccccc1)[C@H](O)CN1C[C@H]2CCCC[C@H]2C[C@H]1C(=O)NC(C)(C)C | inconclusive: 23.5% | 
O=C(O)c1cn[nH]c1-n1cnnn1 |  | active: 25.1 µM
Cc1ccc(CNC(=O)c2cccc(OCc3c(C)noc3C)c2)cc1 | inactive | 
CCOC(=O)CCCCC(=O)c1[nH]c(=O)[nH]c1Cn1cnc2ccccc21 |  | inconclusive: 10 µM [inhibitor, partial curve]
CCOC(=O)C1C(=O)CC(C)(O)C(C(=O)OCC)C1c1ccc(C)s1 (stereo not given) | inconclusive: 43.1% | 
O=C(C1CCCN(S(=O)(=O)c2cccs2)C1)N1CCC(N2CCCCC2)CC1 (stereo not given) | inconclusive: 46.9% [at 2.3 µM] | 
O=C(O)c1ncc(-c2ccccc2)cn1 |  | inconclusive: 25.1 µM [inhibitor, partial curve]
N/C(=N\O)c1cn([C@@H]2O[C@@H](CO)[C@H](O)[C@@H]2O)c2ncnc(NO)c12 | inactive: -6.3% [at 11 µM] | 
CN(Cc1ccccc1)C(=O)CSc1nnc(-c2ccco2)n1-c1ccccc1 | inconclusive: 42.1% | 
Cc1c(C(=O)O)sc2ncnc(N3CCCCC3C)c12 (stereo not given) | inconclusive: 44.3% | 
CCCC/C=C/C(NC(=O)c1ccc(C(F)(F)F)cc1)c1ccccc1 (stereo not given) |  | inconclusive: 12.6 µM [activator, partial curve]
CC(=O)c1cc2c(cc1NC(=O)CCc1ccccc1)OCO2 |  | inconclusive: 25.1 µM [activator, single point]
CN1[C@H]2CC(OC(=O)[C@@H](CO)c3ccccc3)C[C@H]1[C@H]1O[C@H]12 (stereo not given in full) | inconclusive: 62.3% [at 26 µM] | 
CCOC(=O)c1ccccc1NC(=O)C1COc2ccccc2O1 (stereo not given) |  | inconclusive: 25.1 µM [activator, single point]
COc1cccc(C2=NOC(C(=O)N3CCN(C(=O)c4ccco4)CC3)C2)c1 (stereo not given) | inconclusive: 47.2% [at 2.3 µM] | 
O=S(=O)(c1ccccc1)N1CCC2(CC1)CN(C(c1ccccc1)c1ccccc1)C2 | inactive | 
COc1cc(C2C(C#N)=C(N)Oc3n[nH]c(-c4ccccn4)c32)cc(OC)c1OC (stereo not given) |  | active: 25.1 µM
O=C1C=C(NCc2ccccc2)C2(CCCCC2)O1 | inactive: -2.41% [at 11 µM] | 
CCOc1ccc2[nH]c(C)c(CN3CCOCC3)c(=O)c2c1 | inactive | 
CSC1=NCCN1C(=O)Cc1ccc(Cl)cc1 | inconclusive: 54.5% | 
O=C(CN1C(=O)c2ccccc2C1=O)NCC1COc2ccccc2O1 (stereo not given) | inactive | 
Cc1cc(N2C(=O)C(O)=C(C(=O)c3ccc(C)o3)C2c2cccs2)no1 (stereo not given) | inconclusive: 46.5% | 
CCCCC(=O)NCCc1cc2c(C)ccc(C)c2[nH]c1=O | inactive | 
Clc1ccc(C2Nc3ccccc3-n3cccc32)cc1 (stereo not given) |  | inconclusive: 20 µM [activator, partial curve]
CC(=O)c1cccc(N=C2C(=O)Nc3ccccc32)c1 | inconclusive: 41% | 
Cc1ccc2[nH]c(=O)c3cc(C(=O)N(C)Cc4ccco4)sc3c2c1 | inconclusive: 43.8% | 

Entries of single compounds, looked up by structure.
`O=C(CN1C(=O)c2ccccc2C1=O)NCC1COc2ccccc2O1` (stereo not given) in the list: activity change, negative = inhibition: inactive
`Cc1c(C(=O)O)sc2ncnc(N3CCCCC3C)c12` (stereo not given) in the list: activity change, negative = inhibition: inconclusive: 44.3%
`CSC1=NCCN1C(=O)Cc1ccc(Cl)cc1` in the list: activity change, negative = inhibition: inconclusive: 54.5%

Continued.

Structure (SMILES) | activity change, negative = inhibition | Potency
Nc1ccc(N=Nc2ccccc2)c(N)n1 |  | inconclusive: 15.8 µM [inhibitor, partial curve] and inconclusive: 39.8 µM [inhibitor, partial curve]
COc1ccc(-c2nc(-c3ccc(Br)cc3)no2)c(OC)c1 | inactive | 
COc1ccc(-n2c(=O)c(-c3cccs3)nc3cnc(N4CCNCC4)nc32)cc1 |  | inconclusive: 15.8 µM [activator, partial curve]
O=c1cc(CSc2ccc(Cl)cc2)nc(N2CCCCC2)[nH]1 | inconclusive: 51% | 
CC(C)CSc1nc2c(c(=O)[nH]c(=O)n2C)n1CC(O)COc1cccc2ccccc12 (stereo not given) | inconclusive: 42.3% | 
Cc1cc(N2CCN(C(=O)c3ccco3)CC2)n2nc(C)c(-c3ccccc3)c2n1 | inactive | 
CC(=O)N1CCC2(CCCN(c3ccc(-c4ccccc4)cc3)C2)CC1 |  | inconclusive: 31.6 µM [inhibitor, single point]
COc1cccc2c(C)nc(Nc3nc(CSc4nnc(C)s4)cc(=O)[nH]3)nc12 | inconclusive: 47.7% | 
CCSC1=NC(=O)/C(=C2/C=Cc3ccccc3N2CC)S1 |  | inconclusive: 12.6 µM [inhibitor, partial curve]
CC(C)COC(=O)COc1cc(Cl)c(Cl)cc1Cl |  | inconclusive: 39.8 µM [activator, single point]
COc1ccc(S(=O)(=O)N(Cc2cccs2)C2CCCC2)cc1 |  | inconclusive: 31.6 µM [activator, single point]
Cc1cc(C)nc(SCc2nnc(SCc3ccccc3Cl)o2)n1 |  | inconclusive: 25.1 µM [activator, single point]
O=C(CSc1ncnc2c1oc1ccccc12)OCc1ccccc1 |  | inconclusive: 39.8 µM [activator, single point]
O=S(=O)(O)c1ccc(NN(c2c(O)ccc3ccccc23)S(=O)(=O)O)cc1 |  | inconclusive: 3.98 µM [inhibitor, partial curve]
COc1ccc2nc(N3CCCCC3)c(C#N)cc2c1 |  | active: 25.1 µM [activator]
CC(=O)Nc1cc(N2C(=O)CCC2=O)ccc1Cl | inconclusive: 41.4% | 
CN1CCCN(C(=O)c2cc(=O)[nH]c3ccccc23)c2nc3ccccc3nc21 | inactive | 
Cn1c(CNc2nc3ccccc3n2C)nc2ccccc21 | inconclusive: 41.4% | 
c1csc(CSc2nc3ccccc3s2)c1 |  | inconclusive: 31.6 µM [activator, single point]
O=C(CCSc1nnnn1-c1ccccc1)N1CCOCC1 | inactive | 
O=C(CSc1ccc(-c2ccc(F)cc2)nn1)N1CCCCC1 | inactive | 
CCOC(=O)c1ccc(NC(=O)CC2SCCNC2=O)cc1 (stereo not given) | inconclusive: 34.9% | 
CN1CCN(c2ncncc2-c2ccoc2)CC1 | inactive | 
CN(C)C(=O)c1ccc(-c2nc(N(C)C)c3ccccc3n2)cc1 | inconclusive: 87.9% | 
CCN1CCN(C(CNC(=O)c2ccc3c(c2)OCO3)c2cccnc2)CC1 (stereo not given) | inactive | 
Cc1ccc(N2CCN(C(=S)c3ccc(N(C)C)cc3)CC2)cc1 |  | inconclusive: 12.6 µM [inhibitor, partial curve]

Looked up above:
`O=C(CN1C(=O)c2ccccc2C1=O)NCC1COc2ccccc2O1` (stereo not given) – activity change, negative = inhibition: inactive
`COc1ccc2nc(N3CCCCC3)c(C#N)cc2c1` – Potency: active: 25.1 µM [activator]
